Test results taken from patent publication US6455537B1, “Methods for treating opiate intolerance” (priority 1999, dated 2002).

system: analgesic effects of morphine; assay: Antagonism of morphine analgesia, tail flick test in rats; conditions: therapeutic ratio; i.v. doses, rat versus dog ED84

Going from C=CC[N+]1(C)CC[C@]23c4c5ccc(O)c4O[C@H]2C(=O)CC[C@@]3(O)[C@H]1C5 (stereo partly shown) [N-methylnaloxone] to C[N@+]1(CC2CC2)CC[C@]23c4c5ccc(O)c4O[C@H]2C(=O)CC[C@@]3(O)[C@H]1C5 [N-methylnaltrexone], the “Ratio of the Dose Antagonizing Morphine Analgesia Divided by the Dose Protecting Animals from Morphine Induced Emesis” value rises from 14 to 60.

For C=CC[N@@+]1(C)CC[C@]23c4c5ccc(O)c4O[C@H]2[C@@H](O)C=C[C@H]3[C@H]1C5 [R N-methylnalorphine, (5α,6α,17R)-7,8-didehydro-4,5-epoxy-3,6-dihydroxy-17-methyl-17-(2-propenyl)morphinanium chloride], the “Ratio of the Dose Antagonizing Morphine Analgesia Divided by the Dose Protecting Animals from Morphine Induced Emesis” value was 273.

In the case of C=CC[N+]1(C)CC[C@]23c4c5ccc(O)c4O[C@H]2[C@@H](O)C=CC3[C@H]1C5 (stereo partly shown) [S N-methylnalorphine], the “Ratio of the Dose Antagonizing Morphine Analgesia Divided by the Dose Protecting Animals from Morphine Induced Emesis” value is reported as “Emetic”.
